Measurements published in the supplement of paper PMC7661543.
Differences between knockout arms are mostly noise.

Test system: HCC-38
Assay: relative cell number vs DMSO control (72 h) (% of DMSO); higher = less growth inhibition (more cells)
Description: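 QMAP-Seq: a pool of 5 breast cancer cell lines (ZR-75-1, SKBR3, HCC-38, MDA-MB-231, BT-20), each carrying 12 doxycycline-inducible Cas9 sgRNA perturbations (11 knockouts plus non-targeting sgNT), was treated with compounds for 72 h at four 10-fold doses (10 nM-10 uM or 1 nM-1 uM range). Barcodes were amplified and sequenced, and cell number was interpolated from 293T spike-in standard curves. The result is expressed as % of the median of DMSO wells. Two biological replicates.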

O=C(/C=C/c1ccc(O)cc1)c1ccc(O)cc1O [Isoliquiritigenin]
Conditions | relative cell number
sgRNA knockout: sgATF3, 10 nM | 94
sgRNA knockout: sgATF3, 100 nM | 98.7
sgRNA knockout: sgATF3, 1000 nM | 86.1
sgRNA knockout: sgATF3, 10000 nM | 89.5
sgRNA knockout: sgATF4, 10 nM | 91.4
sgRNA knockout: sgATF4, 100 nM | 94.6
sgRNA knockout: sgATF4, 1000 nM | 86.4
sgRNA knockout: sgATF4, 10000 nM | 77
sgRNA knockout: sgATF6, 10 nM | 81.1
sgRNA knockout: sgATF6, 100 nM | 93.3
sgRNA knockout: sgATF6, 1000 nM | 104
sgRNA knockout: sgATF6, 10000 nM | 115
sgRNA knockout: sgATG7, 10 nM | 97
sgRNA knockout: sgATG7, 100 nM | 99.1
sgRNA knockout: sgATG7, 1000 nM | 92.314
sgRNA knockout: sgATG7, 10000 nM | 86.7
sgRNA knockout: sgERN1, 10 nM | 97.3
sgRNA knockout: sgERN1, 100 nM | 94.6
sgRNA knockout: sgERN1, 1000 nM | 91.2
sgRNA knockout: sgERN1, 10000 nM | 99.9
sgRNA knockout: sgHSF1, 10 nM | 79.7
sgRNA knockout: sgHSF1, 100 nM | 84.5
sgRNA knockout: sgHSF1, 1000 nM | 110
sgRNA knockout: sgHSF1, 10000 nM | 84.3
sgRNA knockout: sgHSF2, 10 nM | 99.9
sgRNA knockout: sgHSF2, 100 nM | 113
sgRNA knockout: sgHSF2, 1000 nM | 92
sgRNA knockout: sgHSF2, 10000 nM | 86
sgRNA knockout: sgKEAP1, 10 nM | 90.4
sgRNA knockout: sgKEAP1, 100 nM | 96.27
sgRNA knockout: sgKEAP1, 1000 nM | 98
sgRNA knockout: sgKEAP1, 10000 nM | 95.4
sgRNA knockout: sgNFE2L2, 10 nM | 91.5
sgRNA knockout: sgNFE2L2, 100 nM | 92.9
sgRNA knockout: sgNFE2L2, 1000 nM | 80.2
sgRNA knockout: sgNFE2L2, 10000 nM | 77.8
sgRNA knockout: sgSLC35F2, 10 nM | 86.6
sgRNA knockout: sgSLC35F2, 100 nM | 98.2
sgRNA knockout: sgSLC35F2, 1000 nM | 98.1
sgRNA knockout: sgSLC35F2, 10000 nM | 81.902
sgRNA knockout: sgXBP1, 10 nM | 96.4
sgRNA knockout: sgXBP1, 100 nM | 93.8
sgRNA knockout: sgXBP1, 1000 nM | 91.9
sgRNA knockout: sgXBP1, 10000 nM | 87.9

COc1cc2nccc(Oc3ccc(NC(=O)NC4CC4)c(Cl)c3)c2cc1C(N)=O [Lenvatinib]
Conditions | relative cell number
sgRNA knockout: sgATF3, 10 nM | 95.4
sgRNA knockout: sgATF3, 100 nM | 111
sgRNA knockout: sgATF3, 1000 nM | 106
sgRNA knockout: sgATF3, 10000 nM | 70.1
sgRNA knockout: sgATF4, 10 nM | 92.5
sgRNA knockout: sgATF4, 100 nM | 102
sgRNA knockout: sgATF4, 1000 nM | 93.1
sgRNA knockout: sgATF4, 10000 nM | 68.3
sgRNA knockout: sgATF6, 10 nM | 110
sgRNA knockout: sgATF6, 100 nM | 115
sgRNA knockout: sgATF6, 1000 nM | 117
sgRNA knockout: sgATF6, 10000 nM | 72.7
sgRNA knockout: sgATG7, 10 nM | 92.7
sgRNA knockout: sgATG7, 100 nM | 103
sgRNA knockout: sgATG7, 1000 nM | 96.8
sgRNA knockout: sgATG7, 10000 nM | 74.9
sgRNA knockout: sgERN1, 10 nM | 88.6
sgRNA knockout: sgERN1, 100 nM | 106
sgRNA knockout: sgERN1, 1000 nM | 93.2
sgRNA knockout: sgERN1, 10000 nM | 69.36
sgRNA knockout: sgHSF1, 10 nM | 110
sgRNA knockout: sgHSF1, 100 nM | 120
sgRNA knockout: sgHSF1, 1000 nM | 117
sgRNA knockout: sgHSF1, 10000 nM | 91.7
sgRNA knockout: sgHSF2, 10 nM | 102
sgRNA knockout: sgHSF2, 100 nM | 124
sgRNA knockout: sgHSF2, 1000 nM | 111
sgRNA knockout: sgHSF2, 10000 nM | 79.2
sgRNA knockout: sgKEAP1, 10 nM | 108
sgRNA knockout: sgKEAP1, 100 nM | 134.8
sgRNA knockout: sgKEAP1, 1000 nM | 116
sgRNA knockout: sgKEAP1, 10000 nM | 85.66
sgRNA knockout: sgNFE2L2, 10 nM | 85.6
sgRNA knockout: sgNFE2L2, 100 nM | 105
sgRNA knockout: sgNFE2L2, 1000 nM | 94.6
sgRNA knockout: sgNFE2L2, 10000 nM | 67.4
sgRNA knockout: sgSLC35F2, 10 nM | 99.8
sgRNA knockout: sgSLC35F2, 100 nM | 108.2
sgRNA knockout: sgSLC35F2, 1000 nM | 95.8
sgRNA knockout: sgSLC35F2, 10000 nM | 74.3
sgRNA knockout: sgXBP1, 10 nM | 97.3
sgRNA knockout: sgXBP1, 100 nM | 107
sgRNA knockout: sgXBP1, 1000 nM | 95.4
sgRNA knockout: sgXBP1, 10000 nM | 74.6

CC(C)C[C@H](NC(=O)CNC(=O)c1cc(Cl)ccc1Cl)B(O)O [MLN2238]
Conditions | relative cell number
sgRNA knockout: sgATF3, 10 nM | 96.5
sgRNA knockout: sgATF3, 100 nM | 58.1
sgRNA knockout: sgATF3, 1000 nM | 8.52
sgRNA knockout: sgATF3, 10000 nM | 5.52
sgRNA knockout: sgATF4, 10 nM | 82.2
sgRNA knockout: sgATF4, 100 nM | 51
sgRNA knockout: sgATF4, 1000 nM | 5.95
sgRNA knockout: sgATF4, 10000 nM | 4.74
sgRNA knockout: sgATF6, 10 nM | 84.8
sgRNA knockout: sgATF6, 100 nM | 50.4
sgRNA knockout: sgATF6, 1000 nM | 9.26
sgRNA knockout: sgATF6, 10000 nM | 3.65
sgRNA knockout: sgATG7, 10 nM | 94.1
sgRNA knockout: sgATG7, 100 nM | 58.9
sgRNA knockout: sgATG7, 1000 nM | 9.09
sgRNA knockout: sgATG7, 10000 nM | 6.67
sgRNA knockout: sgERN1, 10 nM | 90.2
sgRNA knockout: sgERN1, 100 nM | 50.9
sgRNA knockout: sgERN1, 1000 nM | 6.6
sgRNA knockout: sgERN1, 10000 nM | 3.71
sgRNA knockout: sgHSF1, 10 nM | 84.3
sgRNA knockout: sgHSF1, 100 nM | 41.9
sgRNA knockout: sgHSF1, 1000 nM | 9.63
sgRNA knockout: sgHSF1, 10000 nM | 5.42
sgRNA knockout: sgHSF2, 10 nM | 96.71
sgRNA knockout: sgHSF2, 100 nM | 62.2
sgRNA knockout: sgHSF2, 1000 nM | 8.56
sgRNA knockout: sgHSF2, 10000 nM | 4.29
sgRNA knockout: sgKEAP1, 10 nM | 78.7
sgRNA knockout: sgKEAP1, 100 nM | 57.7
sgRNA knockout: sgKEAP1, 1000 nM | 6.76
sgRNA knockout: sgKEAP1, 10000 nM | 6
sgRNA knockout: sgNFE2L2, 10 nM | 77
sgRNA knockout: sgNFE2L2, 100 nM | 44
sgRNA knockout: sgNFE2L2, 1000 nM | 5.06
sgRNA knockout: sgNFE2L2, 10000 nM | 3.57
sgRNA knockout: sgSLC35F2, 10 nM | 96
sgRNA knockout: sgSLC35F2, 100 nM | 53.2
sgRNA knockout: sgSLC35F2, 1000 nM | 7.12
sgRNA knockout: sgSLC35F2, 10000 nM | 5.39
sgRNA knockout: sgXBP1, 10 nM | 75.3
sgRNA knockout: sgXBP1, 100 nM | 41
sgRNA knockout: sgXBP1, 1000 nM | 5.073
sgRNA knockout: sgXBP1, 10000 nM | 4.43
